Measured values published in patent US11230532B2, “Pyrimidines and variants thereof, and uses therefor” (Afferent Pharmaceuticals Inc., priority 2016, dated 2022).
The structures given here were assigned with low confidence; some may be wrong.

Protein sequences, listed by entry. Tags and fused reporters are not part of them.
UniProt P56373, whole entry: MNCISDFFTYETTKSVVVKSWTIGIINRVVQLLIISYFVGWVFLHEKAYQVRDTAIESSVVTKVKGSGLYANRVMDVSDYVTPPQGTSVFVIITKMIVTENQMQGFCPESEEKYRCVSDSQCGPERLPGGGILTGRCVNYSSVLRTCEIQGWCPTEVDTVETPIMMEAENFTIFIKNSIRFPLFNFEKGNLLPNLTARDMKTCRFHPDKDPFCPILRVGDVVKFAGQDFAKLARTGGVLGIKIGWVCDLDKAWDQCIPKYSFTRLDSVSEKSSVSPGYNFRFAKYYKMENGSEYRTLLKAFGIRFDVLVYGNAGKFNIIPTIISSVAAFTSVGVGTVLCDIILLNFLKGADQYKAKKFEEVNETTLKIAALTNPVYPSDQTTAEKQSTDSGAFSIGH
UniProt Q9UBL9, whole entry: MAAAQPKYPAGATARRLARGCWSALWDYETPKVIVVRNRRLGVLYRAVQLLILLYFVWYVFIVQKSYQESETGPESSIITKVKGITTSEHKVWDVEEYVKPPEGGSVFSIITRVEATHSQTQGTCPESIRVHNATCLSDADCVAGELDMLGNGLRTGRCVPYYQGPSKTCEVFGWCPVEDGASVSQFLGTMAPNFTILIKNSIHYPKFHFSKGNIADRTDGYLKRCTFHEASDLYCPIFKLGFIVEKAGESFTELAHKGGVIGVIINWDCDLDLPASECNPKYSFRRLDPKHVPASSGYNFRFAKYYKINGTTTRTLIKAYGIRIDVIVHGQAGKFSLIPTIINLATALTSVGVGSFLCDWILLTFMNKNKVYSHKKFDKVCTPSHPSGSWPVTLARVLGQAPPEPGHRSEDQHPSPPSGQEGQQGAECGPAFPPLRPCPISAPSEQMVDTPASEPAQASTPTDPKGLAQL

What was measured:
[1] = biological target: human P2X3 receptor (homomeric P2X3 channels) (Homo sapiens, UniProt P56373); assay: FlexStation calcium fluorescence assay, homomeric P2X3 channels (HEK-hP2X3 cells)
[2] = biological target: human P2X2/3 receptor (heteromeric P2X2/3 channels) (Homo sapiens, UniProt P56373+Q9UBL9); assay: FlexStation calcium fluorescence assay, heteromeric P2X2/3 channels (1321N1-hP2X2/3 cells); conditions: agonist 3 μM ATP, highest concentration tested 10 μM

Structure (SMILES): COc1nc(C(C)C)c(Oc2cnc(N)nc2N)cc1I
- Average pIC50 P2X3 ([1]; HEK293 cells stably transfected with human P2X3, agonist 1 μM α,β-meATP, highest concentration tested 10 μM): 7.2
- Selectivity P2X3/P2X2/3 ([1]; potency ratio P2X3 over P2X2/3 from pIC50s): 6.5
- Average pIC50 P2X2/3 [2]: 6.4
